Screening data, single-dose tests

Protein sequences, listed by entry. Tags and fused reporters are not part of them. Residues count along the entry.
UniProt P9WPC5, whole entry: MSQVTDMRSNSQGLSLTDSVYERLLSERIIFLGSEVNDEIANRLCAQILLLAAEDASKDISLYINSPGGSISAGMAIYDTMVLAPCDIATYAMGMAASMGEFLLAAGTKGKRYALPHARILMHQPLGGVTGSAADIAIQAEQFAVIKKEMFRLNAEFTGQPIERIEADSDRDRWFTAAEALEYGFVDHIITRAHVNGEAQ
UniProt P9WPC3, whole entry partner: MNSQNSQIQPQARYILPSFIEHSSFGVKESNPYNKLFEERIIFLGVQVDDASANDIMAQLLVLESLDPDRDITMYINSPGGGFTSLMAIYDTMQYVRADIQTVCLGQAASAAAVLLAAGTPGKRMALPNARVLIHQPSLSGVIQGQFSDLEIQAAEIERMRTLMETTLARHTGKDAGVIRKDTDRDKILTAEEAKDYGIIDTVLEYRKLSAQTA
UniProt Q8IDJ8, 1-583: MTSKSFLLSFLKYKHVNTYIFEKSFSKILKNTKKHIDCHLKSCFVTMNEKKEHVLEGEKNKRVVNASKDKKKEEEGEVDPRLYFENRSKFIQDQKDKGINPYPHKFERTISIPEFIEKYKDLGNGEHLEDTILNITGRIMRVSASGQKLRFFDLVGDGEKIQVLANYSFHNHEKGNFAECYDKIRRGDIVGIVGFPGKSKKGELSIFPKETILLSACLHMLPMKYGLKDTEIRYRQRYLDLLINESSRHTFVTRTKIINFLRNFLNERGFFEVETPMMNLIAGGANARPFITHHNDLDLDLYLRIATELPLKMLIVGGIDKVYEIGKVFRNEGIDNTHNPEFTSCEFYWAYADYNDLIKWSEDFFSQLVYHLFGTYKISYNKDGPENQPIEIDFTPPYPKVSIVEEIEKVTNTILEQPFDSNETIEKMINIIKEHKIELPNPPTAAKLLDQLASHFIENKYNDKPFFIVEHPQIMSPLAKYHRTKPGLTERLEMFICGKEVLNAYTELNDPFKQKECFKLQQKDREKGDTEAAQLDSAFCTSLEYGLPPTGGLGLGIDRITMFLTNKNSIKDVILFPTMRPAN

Leishmania in macrophages: 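Cell assay of Leishmania donovani living inside macrophages; the read-out is not stated. Compounds at 30 µM. Higher reads as stronger inhibition (inferred: compounds with an IC50 in retests scored well above the rest). Size under these conditions: about 69,000 compounds, about 1,000 of them at 50% or above in at least one test.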
ClpP1P2: 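Protease assay of ClpP1P2, read by the AMC dye that it sets free. Target: ClpP1P2, Mycobacterium tuberculosis (UniProt P9WPC5 and UniProt P9WPC3). Tested at 50 µM. Direction is inferred from only a few compounds that gave an IC50; most scored high, so higher reads as stronger inhibition. Most other retested compounds had strongly negative values. Size under these conditions: about 69,000 compounds, about 10 of them at 50% or above in at least one test.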
Toxoplasma: 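Assay of Toxoplasma gondii numbers, read through their beta-galactosidase reporter with a colour substrate. Compounds at 10 µM. Higher reads as fewer parasites (inferred from which compounds were picked for retests). About 67,000 compounds were tested under these conditions; 0.38% (about 260) showed 50% or more at least once.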
PfKRS1: 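Lysine-tRNA ligase, Plasmodium falciparum 3D7 (UniProt Q8IDJ8). Enzyme assay of the cytosolic lysyl-tRNA synthetase in 384-well plates, read by luminescence. Concentration: 30 µM. Higher reads as stronger inhibition, judged from the few compounds that gave an IC50. Size under these conditions: about 69,000 compounds, about 49 of them at 50% or above in at least one test.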

Values are the deposited “Percent Effect”, in %. The controls that fix the scale are not given in the record; negative values are as filed. This is an unselected part of the compounds tested. Two or more numbers in one place are separate tests of the same structure; such repeats can differ widely.

{"compound": "O=C(Nc1nccs1)NC1CCN(Cc2ccccc2)CC1", "Leishmania in macrophages": 28.44, "ClpP1P2": -8.301, "Toxoplasma": -5.79, "PfKRS1": 0.7831}
{"compound": "O=C(O)C(F)(F)F.O=C(O)C(F)(F)F.[H][C@@]12CCCO[C@]1([H])[C@H](Oc1ccccn1)CN2Cc1nccs1", "Leishmania in macrophages": -12.11, "Toxoplasma": -0.5634}
{"compound": "CC(C)N1CCOCC2(CN(Cc3nccs3)CCO2)C1", "stereo": "stereo not shown", "ClpP1P2": -1.166, "PfKRS1": -3.186}
{"compound": "CN(C)C(=O)CN1CCCC12CCCN(c1ncc(F)cn1)C2", "stereo": "stereo not shown", "ClpP1P2": -0.9262, "PfKRS1": 4.334}
{"compound": "[H][C@]12CN(CC3CC3)C(=O)[C@@]1([H])CN(S(C)(=O)=O)C2", "Leishmania in macrophages": 20.2, "Toxoplasma": -0.6625}
{"compound": "COCC(=O)N1CC(=O)c2sc(Nc3ccc(F)cc3F)nc2C1", "Leishmania in macrophages": "9.386 & -0.8981", "ClpP1P2": 0.6558, "Toxoplasma": -10.34, "PfKRS1": 3.087}
{"compound": "CN(C)C(=O)CNC(=O)c1ccc(Cl)cc1F", "Leishmania in macrophages": -10.55, "ClpP1P2": -4.89, "Toxoplasma": -2.765, "PfKRS1": 0.5688}
{"compound": "Cc1nc2c(c(C)c1CC(=O)Nc1ccc(Cl)cc1)c(=O)[nH]n2C", "Leishmania in macrophages": 15.01, "ClpP1P2": -14.41, "Toxoplasma": -2.643, "PfKRS1": -1.09}
{"compound": "C=C(C)CNC1CCCN(Cc2noc(C3CC3)n2)C1", "stereo": "stereo not shown", "Leishmania in macrophages": 8.824, "ClpP1P2": 24.2, "Toxoplasma": 19.78, "PfKRS1": -1.22}
{"compound": "CC[C@@]1(O)CCN(CCCOc2ccc(C(N)=O)cc2)C[C@H]1O", "Leishmania in macrophages": 7.669, "ClpP1P2": -8.651, "Toxoplasma": -4.692, "PfKRS1": -1.457}
{"compound": "O=C1CC(c2ncc(-c3ccc4c(c3)OCCO4)[nH]2)CN1C1CC1", "stereo": "stereo not shown", "Leishmania in macrophages": 6.768, "ClpP1P2": -4.466, "Toxoplasma": 9.732, "PfKRS1": -1.723}
{"compound": "CCOC(=O)c1cnn(-c2cc(Oc3cccc(C)c3)ncn2)c1N", "Leishmania in macrophages": 4.012, "ClpP1P2": 15.95, "Toxoplasma": 13.76, "PfKRS1": 3.919}
{"compound": "[H][C@@]12CN(Cc3ccc(C)o3)C[C@]1([H])N(Cc1ccccn1)C(=O)O2", "Leishmania in macrophages": 22.98, "Toxoplasma": -1.124}
{"compound": "Cc1ccsc1C(=O)N1CCCn2c(nc(CN(C)C)cc2=O)C1.O=C(O)C(F)(F)F", "Leishmania in macrophages": 2.835, "Toxoplasma": -8.901}
{"compound": "Cc1cc(C)n(Cc2ccc(-c3noc(C(=O)NC[C@@H](C)O)n3)cc2)n1", "Leishmania in macrophages": 18.71, "ClpP1P2": 7.571, "Toxoplasma": -6.328, "PfKRS1": -2.86}
{"compound": "CCc1noc(C(C)N(C)CC(=O)Nc2cccc(C)c2C)n1", "stereo": "stereo not shown", "Leishmania in macrophages": -24.21, "ClpP1P2": -12.67, "Toxoplasma": -1.377, "PfKRS1": 1.925}
{"compound": "Cn1c2c(c(=O)n1C)CN(C(=O)c1cccc(F)c1)CCC2", "Leishmania in macrophages": -1.124, "ClpP1P2": 1.054, "Toxoplasma": 10.04, "PfKRS1": 1.823}
{"compound": "COc1ccc(-c2nnsc2C(=O)N2CCOCC2)cc1", "Leishmania in macrophages": -16.26, "ClpP1P2": -8.256, "Toxoplasma": 4.912, "PfKRS1": -0.4593}
{"compound": "Cn1ccc2c(C(=O)N3CCCC(c4nnc[nH]4)C3)cccc21", "stereo": "stereo not shown", "Leishmania in macrophages": 7.347, "ClpP1P2": 7.156, "Toxoplasma": -4.754, "PfKRS1": 0.3164}
{"compound": "COCC(=O)N1CCC(=O)N(C2CCCC2)Cc2cc(F)ccc21", "Leishmania in macrophages": 1.632, "ClpP1P2": 19.77, "Toxoplasma": -11.07, "PfKRS1": 4.674}
{"compound": "COc1cccc(OCC2CCCN(C(=O)CCCn3cccn3)C2)c1", "stereo": "stereo not shown", "Leishmania in macrophages": -2.892, "ClpP1P2": -23.54, "Toxoplasma": -3.456, "PfKRS1": 0.7574}
{"compound": "Cc1ccc(C(=O)N2C[C@@H]3CCCO[C@@H]3[C@H](N3CCCC3)C2)cn1", "ClpP1P2": -6.971, "PfKRS1": 3.264}
{"compound": "Cn1cc(C(=O)N2CC[C@@]3(O)CCN(C4CCCCC4)C[C@H]3C2)cn1", "ClpP1P2": -15.79, "PfKRS1": 2.411}
{"compound": "COc1ncccc1CNC(=O)N1CCCC1c1ccsc1", "stereo": "stereo not shown", "Leishmania in macrophages": -11.85, "ClpP1P2": -24.64, "Toxoplasma": -13.72, "PfKRS1": 1.476}
{"compound": "CN1CCN2CCN(Cc3ccccc3Cn3cccn3)CC2C1", "stereo": "stereo not shown", "Leishmania in macrophages": -26.15, "ClpP1P2": -4.861, "Toxoplasma": 3.151, "PfKRS1": 5.953}
{"compound": "CC(C)NC(=O)N1CCC2(COCc3cnc(N4CCOCC4)nc32)C1", "stereo": "stereo not shown", "Leishmania in macrophages": 5.048, "ClpP1P2": -7.71, "Toxoplasma": -14.19, "PfKRS1": 2.385}
{"compound": "Cc1csc([C@H]2C[C@@H]3CCN(Cc4cc(C)on4)C[C@H]3O2)n1", "ClpP1P2": -5.168, "PfKRS1": 3.599}
{"compound": "CC(C)(C)n1ncc(C(=O)NCCCC(N)=O)c1C(F)(F)F", "Leishmania in macrophages": 14.13, "ClpP1P2": 7.205, "Toxoplasma": 3.16, "PfKRS1": -1.63}
{"compound": "CCc1ccc(CN(C)C(=O)C2CC(=O)N(c3cccc(O)c3)C2)nc1", "stereo": "stereo not shown", "Leishmania in macrophages": 21.53, "ClpP1P2": -3.182, "Toxoplasma": -10.14, "PfKRS1": 2.635}
{"compound": "O=C(O)c1ccc(F)c(S(=O)(=O)Nc2c(F)cccc2-n2cccn2)c1", "Leishmania in macrophages": 17.82, "ClpP1P2": -4.51, "Toxoplasma": -2.753, "PfKRS1": 2.314}

2 of the entries, repeated:

{"compound": "CC[C@@]1(O)CCN(CCCOc2ccc(C(N)=O)cc2)C[C@H]1O", "Leishmania in macrophages": 7.669, "ClpP1P2": -8.651, "Toxoplasma": -4.692, "PfKRS1": -1.457}
{"compound": "COc1ccc(-c2nnsc2C(=O)N2CCOCC2)cc1", "Leishmania in macrophages": -16.26, "ClpP1P2": -8.256, "Toxoplasma": 4.912, "PfKRS1": -0.4593}

Source: ChEMBL document CHEMBL3988442, “University of Dundee, Small-Polar-MMV Screening Library” (2021).